Yeast fitness data for 167 variants are collected here from the RNAGym collection of RNA variant scans (doi:10.1126/science.aae0568).

Variants at the floor of the assay are shown more often than the library holds them.

First the molecules themselves.
B1: tRNA (parent)
chain: GUUCCGUUGGCGUAAUGGUAACGCGUCUCCCUCCUAAGGAGAAGACUGCGGGUUCGAGUCCCGUACGGAACG

In this data set the parent is B1. Description: yeast fitness relative to wild type (ratio to wild type); higher = fitter; tRNA-Arg(CCU), competitive growth, 37 C, YPD. The essentials: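 Changes in genotype frequencies gave Darwinian fitness relative to wild type. Frequencies were read by 100-nucleotide paired-end sequencing of gene amplicons before and after pooled Saccharomyces cerevisiae strains, carrying tRNA-Arg(CCU) gene variants at the native locus, were competed in YPD at 37°C for 24 hours in six replicates. A genotype was kept only with ≥ 100 starting reads, and estimates < 0.5 were set to 0.5.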
Turning to G6A A14G A36G G48A U64G, the yeast fitness is at most 0.5.
For U3A C5U C33G the value was 0.639; for A21G C61A G67A, 0.532; for G18A G67A G68C, at most 0.5.
For U8A G44C U59A, the yeast fitness is at most 0.5.
Take C33U C61U C66G: the yeast fitness was determined as 0.543.
As to C27U A43C C49U, the yeast fitness came out at 0.757.
With C27G U47C G48A G50A A57G C60G, the yeast fitness is at most 0.5.
With G12A C30G A42C A57U, the yeast fitness was at most 0.5.
For the variant C4G C5G C33G C49G, the yeast fitness is at most 0.5.
In the case of A15G G50C C60U, the yeast fitness was at most 0.5.
For U8G C34G G50C G56C the value was at most 0.5; for U16G C22G U47G, 0.557; for U3G G6A A14G G25C U47A G56A, at most 0.5.
For C11U C29A A36U C49U, the yeast fitness is at most 0.5.
In the case of U19C C27G G51A C62U, the yeast fitness was at most 0.5.
For the variant U2A G41C G50C C62G C66G, the yeast fitness was at most 0.5.
For the variant C4U G25A G51C, the yeast fitness is at most 0.5.
As to G6C U19C U32A A42C, the yeast fitness is at most 0.5.
For C24A U26A C55A C66U the value was at most 0.5; for C22U G25C C31U, 0.625.
Turning to C22G C31U U53A, the yeast fitness was at most 0.5.
As for G17C G41C G56A, the yeast fitness is at most 0.5.
For the variant C5A U19G C31G U53A, the yeast fitness came to 0.775.
For U3G C4G C22U C29U the value was at most 0.5.
Turning to U2C C4U G25C C29U G68A, the yeast fitness is at most 0.5.
For the variant C5G C27A C46U U54C, the yeast fitness was at most 0.5.
On to G12A U19C G23C C62A, for which the yeast fitness is at most 0.5.
As to C27U U32C C62G, the yeast fitness was at most 0.5.
As for U3G C11A C24A C49U, the yeast fitness was at most 0.5.
For C4A C60U the value was 0.825; for U3A C4G G9A C11G C60A C66U, at most 0.5; for U35C G38A A42U G58C, at most 0.5.
Turning to C4U G6A U8G C31U U64C, the yeast fitness was at most 0.5.
On to G17A A20G C62G, for which the yeast fitness is at most 0.5.
Regarding C5U U35G G38U A45U A57C, the yeast fitness was at most 0.5.
U3A C4U A37G A40U C61U: the yeast fitness is at most 0.5.
Regarding U2G U7G U26A C49U A65U, the yeast fitness is at most 0.5.
In the case of A15G C55A U64C, the yeast fitness is at most 0.5.
Consider C11A G23C G39C C61A C62G A65U, for which the yeast fitness was at most 0.5.
In the case of U8A G12C U19G G25C C30U, the yeast fitness is at most 0.5.
Regarding U8A C11U A20C A70U, the yeast fitness was at most 0.5.
The same measure for A15U C27U G50U: at most 0.5; for A14G A20C C46G: 0.635; for C5A C62G C66A: at most 0.5.
The same measure for C5A U13A G39C U47C C60A C61G A69U: at most 0.5; for A15G G18A C55U G56A: at most 0.5.
As to U32A A42G C46U, the yeast fitness was at most 0.5.
Turning to G6A C11U C49G C62U, the yeast fitness was at most 0.5.
As for G9A C34U U53C A69C, the yeast fitness was at most 0.5.
As for C22U A42G G52A C55A, the yeast fitness was at most 0.5.
As for U3A C11G A14C C24G C62G, the yeast fitness is at most 0.5.
For U2A C27A C49G C60U A69G the value was at most 0.5.
For U3C C29U C49U C66A the value was at most 0.5; for U3A G6A C34U C49A G52A, at most 0.5.
Consider C11A U13G C24G C34G G63A A65G, for which the yeast fitness was at most 0.5.
For C24U C27U A40G G44A the value was at most 0.5; for C24A A37G A57G A65G, at most 0.5; for A21G A57C, 0.709.
For U19G C27G A65C C66G the value was 0.907; for C4U G23C A42U, at most 0.5.
On to G6A C22G U47A A70C, for which the yeast fitness was at most 0.5.
For C27A C30G G41C C61G C62U A69U the value was 0.557; for U16A A43G A45C, at most 0.5; for U3A C11G C34U A37G C46U C61A, at most 0.5.
On to C5U G12A G17C C30A, for which the yeast fitness was at most 0.5.
Regarding C5U G12C A40C, the yeast fitness is at most 0.5.
Regarding C5U A20G U35C A37G, the yeast fitness is at most 0.5.
On to A14C A20U C31G, for which the yeast fitness is at most 0.5.
Turning to U7C C30U U59A, the yeast fitness is at most 0.5.
For G17U A20G U59A A70C, the yeast fitness was at most 0.5.
Turning to C5G A15C A42C G51C, the yeast fitness is at most 0.5.
For A21U C31U G52A C55A, the yeast fitness is at most 0.5.
The same measure for C11G C24G C31A C46U G48A C49U: at most 0.5; for C49U C55G G63A C66U: at most 0.5; for U2G C61A A65G C66U: at most 0.5.
U54A A57C: the yeast fitness worked out at 0.555.
Regarding G12C C27A C29U, the yeast fitness was at most 0.5.
As to C24G U35C A36G A65U, the yeast fitness was at most 0.5.
For C22G A45C G50C, the yeast fitness is at most 0.5.
For the variant C33U C34U U53A, the yeast fitness is at most 0.5.
The same measure for C4U G9C A20U A57G C61U A69U: at most 0.5; for U28A C33G A43C G63A A70U: at most 0.5; for A20C U47A C61G C66G: at most 0.5.
The same measure for C29U A42U A43U A57C A70G: 0.577; for C27U A37C A40U A43U C66U: 0.583.
As for A21G C27U A70G, the yeast fitness was 0.792.
Turning to A21C C24A G50C, the yeast fitness was at most 0.5.
For the variant C4G U16A A36C, the yeast fitness was determined as 0.579.
The same measure for U8A G18A C30A U32A U35G: at most 0.5.
In the case of U32A C61G C66G, the yeast fitness was 0.576.
Take C4G C30A A42C G67C: the yeast fitness was at most 0.5.
Turning to U19A A70U, the yeast fitness was determined as 1.03.
For the variant C24U U32G A40U U53C U64G, the yeast fitness is at most 0.5.
The same measure for G18A A20U C62A A70C: 0.552.
As to C34U G50C C61U C62G, the yeast fitness was at most 0.5.
The same measure for A15U C55U G56A C66G: 0.59; for C4A C5U U16C G17A: at most 0.5; for C24A U26G A43C G51A C62G G63A C66G A69G: at most 0.5.
Consider A14G A37U G68C, for which the yeast fitness is at most 0.5.
The same measure for C4U G17C G18C C22A C60A C66U: at most 0.5; for A37C A70U: 0.752.
Take A37C A45U G67C G68A: the yeast fitness was at most 0.5.
Take U3C G17C A40G C61U: the yeast fitness was at most 0.5.
For U3A C5U A15C A36U A40G C49G C66G the value was at most 0.5.
Turning to G17U G25C A42G U54A, the yeast fitness was at most 0.5.
Consider G17A U32C C34A G52U, for which the yeast fitness was at most 0.5.
As for C4G A15U C33A G68C, the yeast fitness is at most 0.5.
For U7A A15C A43U the value was at most 0.5.
For U16G G23A C34G G68U, the yeast fitness is at most 0.5.
U2A C27U A36G: the yeast fitness worked out at 0.578.
In the case of A14G C24G C31U C66G, the yeast fitness was at most 0.5.
As to U3C U32G C61A C62A, the yeast fitness is 0.53.
For the variant U16A C22G G48A, the yeast fitness is 0.994.
With A21C C27U C49U G58C C61A A65U, the yeast fitness was at most 0.5.
Consider C5A U35C G44A G48C C55G A65G C66U, for which the yeast fitness was at most 0.5.
Regarding U7G C24G C27U C29A, the yeast fitness is 0.6.
For the variant C34G G48C, the yeast fitness was determined as 0.519.
For G9A C11U C29A C55U A57G the value was at most 0.5; for G10A U16A G23A C30G G51C, at most 0.5; for C22A U47G C55A, at most 0.5.
In the case of C22G C31U A40C C49G C60G, the yeast fitness was at most 0.5.
The same measure for A36U A45U C46A C66U A69U: at most 0.5; for C5U C24G A42C U53G G67C: at most 0.5.
Consider C5U C55G C61A, for which the yeast fitness was at most 0.5.
With A36U U53A A65U, the yeast fitness is at most 0.5.
For the variant U2G G9A A14U A37C, the yeast fitness was at most 0.5.
The same measure for C5A G17C A57G: at most 0.5; for C30U U35C G52C C66G: at most 0.5; for C22G A45C C46A G48A U64C: at most 0.5.
As to G9U G25C A43G C61U, the yeast fitness was at most 0.5.
For U3A C22U C24A C27U A43C the value was 0.522; for C33A G39C C49U U54A A70U, at most 0.5; for U7C C27G C33G G44A C62G, at most 0.5.
For C27G U54C A69G the value was 0.625; for C4G C34U G52C G68A, at most 0.5.
Turning to A43C A45U C46A C49A, the yeast fitness is at most 0.5.
As to A20G C34U U47G G52A G58C C62A, the yeast fitness was at most 0.5.
Regarding C5U C27G C33G, the yeast fitness was at most 0.5.
With U19A C24A C31G C62U G68C, the yeast fitness worked out at 0.535.
Regarding U7C A14G G17A G48C A70U, the yeast fitness was at most 0.5.
Consider C5G U8C A36C G48A, for which the yeast fitness was at most 0.5.
Take G10C U13C U53C A65C: the yeast fitness was at most 0.5.
In the case of C5U A15U C30G C33G A40G A43U U54G, the yeast fitness is at most 0.5.
Turning to U35A G44A, the yeast fitness stood at 0.715.
For the variant U2G G39C U47C C66A, the yeast fitness is at most 0.5.
The same measure for U8C G9A C29G: at most 0.5.
Regarding C24A A40C A43C C46U, the yeast fitness is at most 0.5.
With C27A G44A A57C, the yeast fitness was at most 0.5.
For the variant U3A C33G A43G G58A G67A A69U, the yeast fitness is at most 0.5.
For the variant C11U A15U C55U C66U, the yeast fitness is at most 0.5.
Turning to C34G G52A, the yeast fitness turned out to be 0.562.
Consider C4G C5G C34G A57G A65G C66U, for which the yeast fitness was at most 0.5.
G18A C49U G51C A65G: the yeast fitness is at most 0.5.
Turning to A36C A37C U53G A69C, the yeast fitness was at most 0.5.
U8G C11G A69C: the yeast fitness is at most 0.5.
On to U2G U8C G12A A45U G48A, for which the yeast fitness was at most 0.5.
For C22G U28A C31G G51C, the yeast fitness is at most 0.5.
With A20C U28G A69C, the yeast fitness amounted to 0.714.
G10A G39C C66U: the yeast fitness is at most 0.5.
For C30G U47A G52C the value was at most 0.5; for C30G C46G U53C, at most 0.5; for A42U C49A G56C G67U, at most 0.5.
The same measure for A14U A40G A45U G56A: at most 0.5; for C11A G12U U13C A14G G44C C46A C49G: at most 0.5; for C5G G17A G18A A65C G68C: at most 0.5.
With G12A A20C C24G U54A C60G C66U, the yeast fitness was at most 0.5.
